This note sets out measurements from publication PMC7819943, “Rice protein-binding microarrays: a tool to detect cis-acting elements near promoter regions in rice”.

Sequences of proteins named here, by UniProt entry; tags and fusion partners are left off.
UniProt Q0JBA9, entry or part of it: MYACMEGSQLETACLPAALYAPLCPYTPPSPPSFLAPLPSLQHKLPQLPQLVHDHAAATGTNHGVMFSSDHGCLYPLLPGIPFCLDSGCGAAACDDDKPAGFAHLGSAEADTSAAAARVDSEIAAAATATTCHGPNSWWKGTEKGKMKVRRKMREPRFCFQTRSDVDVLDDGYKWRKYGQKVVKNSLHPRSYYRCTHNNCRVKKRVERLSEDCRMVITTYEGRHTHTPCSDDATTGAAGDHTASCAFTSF

Some of the results follow.

This experiment addresses OsWRKY34 (Oryza sativa, UniProt Q0JBA9 1-250). The experiment is described as follows: protein-binding microarray (RPBM); PBS, 2% BSA, 51.3 ng/ul salmon testes DNA, 50 uM zinc acetate, 200 nM TF, 25 C, 1 h; high values mean tight binding. The following applies: protein: recombinant; tags: N-terminal polyhistidine and DsRed monomer fusion (pET32a); label: CyDye5-dUTP incorporated in the synthesized complementary strand; 3' TTTTT single-stranded linker to array surface; dsDNA, one strand shown. The procedure, abridged: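 The binding signal for each feature is its fluorescence intensity in arbitrary units. An Axon 4000B scanner was used to read a custom Agilent array that had been made double-stranded with Cy5-dUTP primer extension, blocked with 2% BSA, incubated at 25 °C for 1 h with 200 nM protein in PBS, 2% BSA, salmon testes DNA and 50 µM zinc acetate, and washed. The protein was an N-terminal polyhistidine–DsRed transcription factor fusion from E. coli BL21-CodonPlus, purified on Ni–NTA.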
Take “TTATAAGATGTTTTGACTTTGGTCAAAGTCAAACTATTTCCGGAGTCACCTAGTGCAG”: the binding signal is 16600 fluorescence intensity (a.u.).

Turning to “AAACCAACCACAGCTCACATTCCTTCATGCATCCATTGTACGGAGTCACCTAGTGCAG”, the binding signal was 8300 fluorescence intensity (a.u.).

Turning to “AAGAGGGTGGGTTGTTGGGGAGAGGGGAGGGAGGAGGATTCGGAGTCACCTAGTGCAG”, the binding signal was 20100 fluorescence intensity (a.u.).

For the sequence “ATTAATATCTCTCGTACTCTTGCTCCTCTTCTTCTTCTTCCGGAGTCACCTAGTGCAG”, the binding signal is 10500 fluorescence intensity (a.u.). To “ACGTATATATTTTTTTTCTTCTCCTCTTCTTTCCAAAGCTCGGAGTCACCTAGTGCAG” belongs 9740 fluorescence intensity (a.u.). Turning to “CTCTTTGTTTTTTTGTCAATTGGGCATGGAATTCTTTTTACGGAGTCACCTAGTGCAG”, the binding signal is 14400 fluorescence intensity (a.u.). For “CAGAATTGGACGGGAGGGGAACAGTAAGAAACATCAATTACGGAGTCACCTAGTGCAG”, the binding signal is 8090 fluorescence intensity (a.u.).

As for “TTTTCGGTTCCCAAGCCGCTCGTGAACTTCTCTCGACTCACGGAGTCACCTAGTGCAG”, the binding signal is 9360 fluorescence intensity (a.u.). To “TGTGTGTTCTCCTTTCCTTTAACCTCTCACCATCTTAACTCGGAGTCACCTAGTGCAG” belongs 9950 fluorescence intensity (a.u.); to “ATTTTGATTTTGGTTAGTTTCCGTATATTTTTTCCTCTCACGGAGTCACCTAGTGCAG”, 12100 fluorescence intensity (a.u.). With “GCTGGATCGCAACGCAAGGGCCCGCGTCCTCTTCCCTTTCCGGAGTCACCTAGTGCAG”, the binding signal was 8940 fluorescence intensity (a.u.). To “CTCCGCATCCCTCTCGCTCCTACCTTACCCCTCGCCGCCACGGAGTCACCTAGTGCAG” belongs 10200 fluorescence intensity (a.u.); to “AACACTTCTTTTGCGGGTCGGCTCCTTTCCTGGACTTTGCCGGAGTCACCTAGTGCAG”, 15000 fluorescence intensity (a.u.); to “GTAGTAAGCACATACTAGGTGTTGTGGACATGCCATTGACCGGAGTCACCTAGTGCAG”, 8730 fluorescence intensity (a.u.). To “ATATTGGATTGGTTTTCATTGGTTGTATCGTGTGGACCAACGGAGTCACCTAGTGCAG” belongs 14000 fluorescence intensity (a.u.); to “ACCCGTTGTATCTGTGTTTTTTCGGTTGAGGGACGAAAATCGGAGTCACCTAGTGCAG”, 8630 fluorescence intensity (a.u.); to “ACCGCCTCCAATCCCGTTACCGCTCCGTGCGACATCCAATCGGAGTCACCTAGTGCAG”, 10400 fluorescence intensity (a.u.). To “CCAATCCCTACAGTGAAGGCACAGAGATTAGCTTCCAACACGGAGTCACCTAGTGCAG” belongs 8940 fluorescence intensity (a.u.); to “CCACCCGCATTGGCGTTCAGCTGTATCATCCACCAGCAATCGGAGTCACCTAGTGCAG”, 8560 fluorescence intensity (a.u.). As for “CAAGCCGGGCGGGAGCCGTGGCGGCGGCCGGGCGGGCGGGCGGAGTCACCTAGTGCAG”, the binding signal was 8260 fluorescence intensity (a.u.). In the case of “TCTCCTTTTCTAGTGTTCGCCCGCCGCCATCCACACGCCGCGGAGTCACCTAGTGCAG”, the binding signal is 8820 fluorescence intensity (a.u.).

In the case of “AATTCTACTCCTGTTCTTTTACTTCTGTACAGAAACCGGTCGGAGTCACCTAGTGCAG”, the binding signal was 9010 fluorescence intensity (a.u.).

For “ACGATTTAGGTTTGTTTCCTATTCCTTTTACTTTTCTTTACGGAGTCACCTAGTGCAG”, the binding signal was 8610 fluorescence intensity (a.u.).

With “TAACTACTTTTCCGGCCCAGCTATTCTTTTCGTGCCCTTTCGGAGTCACCTAGTGCAG”, the binding signal was 9030 fluorescence intensity (a.u.). “TTTGATTGCTCCTAAACGTTACTCCCTCGCGCGCCATAAACGGAGTCACCTAGTGCAG”: the binding signal is 8420 fluorescence intensity (a.u.). Take “AACCCGACATCTATTTCTATAGTTTGGATATACACACGGCCGGAGTCACCTAGTGCAG”: the binding signal was 8490 fluorescence intensity (a.u.). Under “TTAGAAATCAATGAAACTACTCTTTTTTTTATCATATTTCCGGAGTCACCTAGTGCAG” stands 8530 fluorescence intensity (a.u.); under “TTCTCAGCGGCCCGAACCTGTATACATCGCCGGCGTCTTGCGGAGTCACCTAGTGCAG”, 9250 fluorescence intensity (a.u.); under “AACAAGGTTTGGGGCCTTAGGGGTGATTGTTCACCGTTGACGGAGTCACCTAGTGCAG”, 9800 fluorescence intensity (a.u.). To “CTGACGGTCTCATCCACGCTGCAACCAAAGCACCCTCGCCCGGAGTCACCTAGTGCAG” belongs 10400 fluorescence intensity (a.u.); to “TAAATTTTTTTTTTGTGTCCTTCACACATTTTTTATATATCGGAGTCACCTAGTGCAG”, 8230 fluorescence intensity (a.u.); to “GCTCCGCCGCCGCACTCCGCTCCGCCGCCACGCTCCGCCACGGAGTCACCTAGTGCAG”, 13400 fluorescence intensity (a.u.). To “AAGGGGTGGGCGGCAGGGATGCGGTGGGCGATGAGGGAGACGGAGTCACCTAGTGCAG” belongs 10600 fluorescence intensity (a.u.); to “TTCTGTAACTTGACCGCCCCTTGCATATATATGCAGCCAGCGGAGTCACCTAGTGCAG”, 8220 fluorescence intensity (a.u.); to “CGCGGGTTTGCGTGCCAACGTTTGACTGTTCGTCTTATATCGGAGTCACCTAGTGCAG”, 8500 fluorescence intensity (a.u.). As for “CGCGCGCGCAAGCAACCTTACCTTCCCATGCTGCTGTGATCGGAGTCACCTAGTGCAG”, the binding signal was 8320 fluorescence intensity (a.u.).

Take “CACCCACCAAAACCTCCCACGCACATCTGCCGCGCACGCTCGGAGTCACCTAGTGCAG”: the binding signal is 8450 fluorescence intensity (a.u.). Take “CCATTATCAGACGATCTTGCTGACCATAAGCTGTACCACACGGAGTCACCTAGTGCAG”: the binding signal was 9350 fluorescence intensity (a.u.). Under “AATGTATGATGCCGTTGACTTTTCGACTAACGTTTGACCACGGAGTCACCTAGTGCAG” stands 29200 fluorescence intensity (a.u.). Under “CTCACCCCACTCGTTTGCTTGCGTTGCGTGCACAGCGACCCGGAGTCACCTAGTGCAG” stands 8840 fluorescence intensity (a.u.); under “GTGGGTAGGTATTCTTGTTTGATCATGTTTAAGCAGGCGCCGGAGTCACCTAGTGCAG”, 9790 fluorescence intensity (a.u.); under “AGTGTCTTTGACTTTTTGTTTGTAACGTTTGACCATTCGTCGGAGTCACCTAGTGCAG”, 21900 fluorescence intensity (a.u.).
